This assay deals with SUP-B15. In words: Antiproliferative activity against human SUP-B15 cells after 72 hrs by CellTiter-Glo luminescent cell viability assay. The class given is functional, cell-based. Particulars: SUP-B15, 72 h.

What is called EC50 is the concentration giving half of the maximal effect. Lower therefore signals an effect from little substance.

`CN[C@@H]1C[C@H]2O[C@@](C)([C@@H]1OC)n1c3ccccc3c3c4c(c5c6ccccc6n2c5c31)C(=O)NC4` [STAUROSPORINE] showed an EC50 of 0.55 µM.

These data come from ChEMBL document CHEMBL4316610, “Synthesis and Biological Studies of (+)-Liquiditerpenoic Acid A (Abietopinoic Acid) and Representative Analogues: SAR Studies” (J Nat Prod, 2019).
